Earlier results, collected in article PMC6680770, “Effect of Ticagrelor, a Cytochrome P450 3A4 Inhibitor, on the Pharmacokinetics of Tadalafil in Rats” (Pharmaceutics, 2019).

Conditions: atorvastatin co-administered with ticagrelor; cited from earlier work

Compound: CC(C)c1c(C(=O)Nc2ccccc2)c(-c2ccccc2)c(-c2ccc(F)cc2)n1CC[C@@H](O)C[C@@H](O)CC(=O)O [atorvastatin]
- increase of area under the plasma concentration-time curve from 0 to infinity: 36%
- increase of maximal plasma concentration: 23%
